For at least one entry, the source does not settle the construct or the ends of the probe. Where cells or extracts were used, other partners may take part. Negatives hold for the conditions tested.
Key:
Assay in all cases: EMSA with unlabeled self-competition
[1] = test system: PPARγ (Pelteobagrus fulvidraco (yellow catfish)); details: HEK293T nuclear extract, EMSA with HEK293T nuclear protein (pcDNA3.1, PPARα, PPARγ or STAT3 transfected), biotin probes, pH and temperature not given (method of cited Xu et al.), protein in an extract, protein details: C-terminal FLAG
[2] = test system: PPARα (Pelteobagrus fulvidraco (yellow catfish)); details: HEK293T nuclear extract; EMSA with HEK293T nuclear protein (pcDNA3.1, PPARα, PPARγ or STAT3 transfected), biotin probes; pH and temperature not given (method of cited Xu et al.); protein in an extract; protein details: C-terminal FLAG
[3] = test system: STAT3 (Pelteobagrus fulvidraco (yellow catfish)); details: HEK293T nuclear extract, EMSA with HEK293T nuclear protein (pcDNA3.1, PPARα, PPARγ or STAT3 transfected), biotin probes, pH and temperature not given (method of cited Xu et al.), protein in an extract, protein details: C-terminal FLAG

Chains of the proteins cited; added tags and fusions are not shown. A line that says so, or that is headed by a name, gives the form on record, which may keep a tag or linker.
STAT3 (Pelteobagrus fulvidraco (yellow catfish)), one chain, as listed by the source: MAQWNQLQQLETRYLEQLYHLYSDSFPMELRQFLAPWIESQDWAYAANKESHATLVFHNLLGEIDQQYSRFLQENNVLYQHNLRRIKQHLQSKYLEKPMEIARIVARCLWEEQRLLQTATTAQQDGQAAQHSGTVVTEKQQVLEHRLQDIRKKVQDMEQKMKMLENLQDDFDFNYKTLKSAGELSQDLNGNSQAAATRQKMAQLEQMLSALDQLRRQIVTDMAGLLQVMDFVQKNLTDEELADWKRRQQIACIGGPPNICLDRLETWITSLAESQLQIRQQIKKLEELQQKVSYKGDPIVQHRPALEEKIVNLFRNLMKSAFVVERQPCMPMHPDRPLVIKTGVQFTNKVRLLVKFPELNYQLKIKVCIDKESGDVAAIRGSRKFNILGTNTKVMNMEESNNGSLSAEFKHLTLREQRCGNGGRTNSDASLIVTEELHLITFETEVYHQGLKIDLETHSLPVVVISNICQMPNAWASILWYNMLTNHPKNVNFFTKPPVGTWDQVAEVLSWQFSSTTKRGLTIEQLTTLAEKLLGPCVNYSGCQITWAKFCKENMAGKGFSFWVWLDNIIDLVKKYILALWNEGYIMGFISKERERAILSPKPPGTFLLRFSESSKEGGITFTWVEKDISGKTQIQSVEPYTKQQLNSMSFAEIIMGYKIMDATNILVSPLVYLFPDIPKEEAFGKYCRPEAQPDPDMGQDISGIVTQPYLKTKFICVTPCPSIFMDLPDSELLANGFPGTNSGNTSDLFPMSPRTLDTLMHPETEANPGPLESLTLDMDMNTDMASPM

“CCATGACCTTTAACCCCTAA (double strand) [cyp17α-PPARγ (-89/-70)]”: binds ([1]; PPARγ overexpression increased band).
“CCTGTATTTTCACCTAGTTT (double strand) [sf-1-PPARα (-413/-396)]”: no binding [2].
“GCATGTGCGTCAAAAGTCCACA (double strand) [cyp17α-PPARα (-881/-864)]”: no binding [2].
“GGAAAATTCCAGAAAATGAATC (double strand) [cyp17α-STAT3 (-1669/-1660)]”: no binding [3].
“GTGAATTGACTTTTGTAGAGT (double strand) [sf-1-PPARγ (-1396/-1388)]”: no binding [1].
“TAAACACTTAAGGAAAATACAAA (double strand) [sf-1-STAT3 (-1106/-1096)]”: binds ([3]; self-competitor competes, but STAT3 overexpression reduced band brightness).
